Taken from: PubChem BioAssay AID1259254 (NCATS, 2017)

- Assay: 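Gene knock-downs that lead to re-replication, shown by excess G2 DNA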 (primary screen)
- Cell system: human HCT116 colorectal cancer cells
- Knock-down reagent: single siRNA against human genes
- Time to read-out: 3 days
- Measured: 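Nuclei stained with Hoechst and imaged; cell-cycle phase assigned by DNA content; G2 share scaled per plate, non-targeting siRNA 0%, GMNN siRNA 100%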
- Scale: G2 robust z-score and G2 cells, % of GMNN control: higher = more G2 cells, more excess DNA replication
- Hit rule: 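Active siRNAs have a G2 robust z of 5 or more median absolute deviations over the median, which in these data means about 38% or higher of GMNN control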
This is a random part of about 59,000 deposited reagents. About 1,550 of all reagents (2.6%) were called active. 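G2 share is only a proxy for re-replication; each gene was hit by three separate siRNAs, and active genes were retested.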 A number with no mark means an inactive call. Reagents against one gene are numbered here. Not all columns of the deposit are shown. Not given: the amount of reagent.

For PCDHA1 #1 the deposit lists G2 robust z-score 4.65; G2 cells, % of GMNN control 35.7.
Depletion of PCDHA1 #2 came out at: G2 robust z-score -0.761; G2 cells, % of GMNN control -2.39.
PCDHA1 #3 showed G2 robust z-score 0.0307; G2 cells, % of GMNN control 3.18.
With knock-down of STAT3 #1, the screen gave G2 robust z-score 0.151; G2 cells, % of GMNN control 4.03.
Silencing of STAT3 #2 resulted in: G2 robust z-score 1.02; G2 cells, % of GMNN control 10.1.
STAT3 #3 showed G2 robust z-score 1.84; G2 cells, % of GMNN control 15.9.
WWC2 #1 showed G2 robust z-score 1.93; G2 cells, % of GMNN control 16.6.
Silencing of WWC2 #2 gave: G2 robust z-score -0.684; G2 cells, % of GMNN control -1.85.
WWC2 #3 scored G2 robust z-score -0.401; G2 cells, % of GMNN control 0.147.
MAN1B1 #1 gave G2 robust z-score -1.07; G2 cells, % of GMNN control -4.53.
For MAN1B1 #2 the deposit lists G2 robust z-score -0.651; G2 cells, % of GMNN control -1.61.
After knock-down of MAN1B1 #3, the record shows G2 robust z-score -0.831; G2 cells, % of GMNN control -2.88.
TRPA1 #1 gave G2 robust z-score -0.441; G2 cells, % of GMNN control -0.136.
Knock-down of TRPA1 #2 came out at: G2 robust z-score 1.54; G2 cells, % of GMNN control 13.8.
TRPA1 #3 showed G2 robust z-score -1.05; G2 cells, % of GMNN control -4.41.
With knock-down of SCT #1, the screen gave G2 robust z-score -0.122; G2 cells, % of GMNN control 2.11.
SCT #2 gave G2 robust z-score 2.09; G2 cells, % of GMNN control 17.7.
For SCT #3 the deposit lists G2 robust z-score 7.3 (active); G2 cells, % of GMNN control 54.3.
Knock-down of RRP8 #1 gave: G2 robust z-score -0.115; G2 cells, % of GMNN control 2.16.
For RRP8 #2, the entry reads G2 robust z-score 1.14; G2 cells, % of GMNN control 11.
Depletion of RRP8 #3 came out at: G2 robust z-score -0.0845; G2 cells, % of GMNN control 2.37.
KAT14 #1 gave G2 robust z-score -1.09; G2 cells, % of GMNN control -4.72.
KAT14 #2 showed G2 robust z-score -0.188; G2 cells, % of GMNN control 1.65.
Knock-down of KAT14 #3 came out at: G2 robust z-score 2.97; G2 cells, % of GMNN control 23.9.
